# Source: the supplement of paper PMC8728848
# The list shows a part of the results.
# B1: PX9961M-bvu-482-23-482 (Bacteroides vulgatus) (protein)
# chain: WLDLAPSTQVDTETSINVLSDIEFTLNGIYSTMQSSDAYSGRLVYYGDVTGDDMQAVSSTKRTGNYYRFNFTKDNGPSSHWSYLYSIIQNCNLILMNVDKLSIDEDETEYKNDLKGQALAIRGMALFDLTRIFGYPYLKDNGASLGVPIVKELSTIDSKPARNTVAECYTEIISDLKNSTELLSGDFNKGKVNRWAAMTLLSRVYLYKGEYNEALTMAENAIKGAEKEGYALWTNEEYPTAWGNDASASNPGEILFEIVNLTTDSPGKESMGYLNSYNGYDDMCITCSFYQLLKKDPKDVRLKILSFDKKYYAYVNKYQPQQGENITDANIPLIRLSEAYLNAAEAAVQTGDNAKAVKYLNSIVQRANPENSVEGKTLTLENVLDERRKELVAEGHRMYDVIRNGMTVKRIDVKDSDINKTKHNTAYMEYDWNFHKILLPIPKKEMDANPNMKQNPGYVD
# How the values were obtained:
# Assay in all cases: glycan array binding signal (z-score within array); higher = stronger binding
# Conditions in all cases: glycan notation: IUPAC condensed, linker removed
# [1] = biological target: Gal(b1-4)GlcNAc(b1-2)[Gal(b1-4)GlcNAc(b1-6)]Man(a1-6)[GlcNAc(b1-4)][Gal(b1-4)GlcNAc(b1-2)Man(a1-3)]Man(b1-4)GlcNAc(b1-4)GlcNAc
# Method in brief: (§1)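 Glycan array data came from 3228 arrays in the Consortium for Functional Glycomics database, and only arrays with an available protein sequence were kept. Glycan names were put into IUPAC-condensed notation, and columns mapping to the same glycan were averaged. The binding signal is a within-array Z-score, averaged across arrays of one protein sequence run at different concentrations or buffers and across linkers. A negative Z-score can be read as non-binding.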
# [2] = biological target: Gal(b1-4)GlcNAc(b1-2)[Gal(b1-4)GlcNAc(b1-6)]Man(a1-6)[GlcNAc(b1-4)][Gal(b1-4)GlcNAc(b1-2)[Gal(b1-4)GlcNAc(b1-4)]Man(a1-3)]Man(b1-4)GlcNAc(b1-4)[Fuc(a1-6)]GlcNAc
# Method in brief: as §1
# [3] = biological target: Gal(b1-4)GlcNAc(b1-3)Gal(b1-3)GalNAc
# Method in brief: as §1
# [4] = biological target: Gal(b1-4)GlcNAc(b1-3)Gal(b1-3)GlcNAc
# Method in brief: as §1
# [5] = biological target: Gal(b1-4)GlcNAc(b1-3)Gal(b1-4)Glc
# Method in brief: as §1
# [6] = biological target: Gal(b1-4)GlcNAc(b1-3)Gal(b1-4)GlcNAc
# Method in brief: as §1
# [7] = biological target: Gal(b1-4)GlcNAc(b1-3)Gal(b1-4)GlcNAc(b1-2)Man(a1-3)[Gal(b1-4)GlcNAc(b1-3)Gal(b1-4)GlcNAc(b1-2)Man(a1-6)]Man(b1-4)GlcNAc(b1-4)GlcNAc
# Method in brief: as §1
# [8] = biological target: Gal(b1-4)GlcNAc(b1-3)Gal(b1-4)GlcNAc(b1-2)Man(a1-3)[Gal(b1-4)GlcNAc(b1-3)Gal(b1-4)GlcNAc(b1-2)Man(a1-6)]Man(b1-4)GlcNAc(b1-4)[Fuc(a1-6)]GlcNAc
# Method in brief: as §1
# [9] = biological target: Gal(b1-4)GlcNAc(b1-3)Gal(b1-4)GlcNAc(b1-2)[Gal(b1-4)GlcNAc(b1-3)Gal(b1-4)GlcNAc(b1-6)]Man(a1-6)[Gal(b1-4)GlcNAc(b1-3)Gal(b1-4)GlcNAc(b1-2)Man(a1-3)]Man(b1-4)GlcNAc(b1-4)GlcNAc
# Method in brief: as §1
# [10] = biological target: Gal(b1-4)GlcNAc(b1-3)Gal(b1-4)GlcNAc(b1-2)[Gal(b1-4)GlcNAc(b1-3)Gal(b1-4)GlcNAc(b1-6)]Man(a1-6)[Gal(b1-4)GlcNAc(b1-3)Gal(b1-4)GlcNAc(b1-2)Man(a1-3)]Man(b1-4)GlcNAc(b1-4)[Fuc(a1-6)]GlcNAc
# Method in brief: as §1
# [11] = biological target: Gal(b1-4)GlcNAc(b1-3)Gal(b1-4)GlcNAc(b1-3)Gal(b1-4)GlcNAc
# Method in brief: as §1
# [12] = biological target: Gal(b1-4)GlcNAc(b1-3)Gal(b1-4)GlcNAc(b1-3)Gal(b1-4)GlcNAc(b1-2)Man(a1-3)[Gal(b1-4)GlcNAc(b1-3)Gal(b1-4)GlcNAc(b1-3)Gal(b1-4)GlcNAc(b1-2)Man(a1-6)]Man(b1-4)GlcNAc(b1-4)GlcNAc
# Method in brief: as §1
# [13] = biological target: Gal(b1-4)GlcNAc(b1-3)Gal(b1-4)GlcNAc(b1-3)Gal(b1-4)GlcNAc(b1-2)Man(a1-3)[Gal(b1-4)GlcNAc(b1-3)Gal(b1-4)GlcNAc(b1-3)Gal(b1-4)GlcNAc(b1-2)Man(a1-6)]Man(b1-4)GlcNAc(b1-4)[Fuc(a1-6)]GlcNAc
# Method in brief: as §1
# [14] = biological target: Gal(b1-4)GlcNAc(b1-3)Gal(b1-4)GlcNAc(b1-3)Gal(b1-4)GlcNAc(b1-2)[Gal(b1-4)GlcNAc(b1-3)Gal(b1-4)GlcNAc(b1-3)Gal(b1-4)GlcNAc(b1-6)]Man(a1-6)[Gal(b1-4)GlcNAc(b1-3)Gal(b1-4)GlcNAc(b1-3)Gal(b1-4)GlcNAc(b1-2)Man(a1-3)]Man(b1-4)GlcNAc(b1-4)[Fuc(a1-6)]GlcNAc
# Method in brief: as §1
# [15] = biological target: Gal(b1-4)GlcNAc(b1-3)Gal(b1-4)GlcNAc(b1-3)Gal(b1-4)GlcNAc(b1-3)Gal(b1-4)GlcNAc(b1-2)Man(a1-3)[Gal(b1-4)GlcNAc(b1-3)Gal(b1-4)GlcNAc(b1-3)Gal(b1-4)GlcNAc(b1-3)Gal(b1-4)GlcNAc(b1-2)Man(a1-6)]Man(b1-4)GlcNAc(b1-4)GlcNAc
# Method in brief: as §1
# [16] = biological target: Gal(b1-4)GlcNAc(b1-3)Gal(b1-4)GlcNAc(b1-3)Gal(b1-4)GlcNAc(b1-3)Gal(b1-4)GlcNAc(b1-2)Man(a1-3)[Gal(b1-4)GlcNAc(b1-3)Gal(b1-4)GlcNAc(b1-3)Gal(b1-4)GlcNAc(b1-3)Gal(b1-4)GlcNAc(b1-2)Man(a1-6)]Man(b1-4)GlcNAc(b1-4)[Fuc(a1-6)]GlcNAc
# Method in brief: as §1
# [17] = biological target: Gal(b1-4)GlcNAc(b1-3)Gal(b1-4)GlcNAc(b1-3)Gal(b1-4)GlcNAc(b1-3)Gal(b1-4)GlcNAc(b1-2)[Gal(b1-4)GlcNAc(b1-3)Gal(b1-4)GlcNAc(b1-3)Gal(b1-4)GlcNAc(b1-3)Gal(b1-4)GlcNAc(b1-6)]Man(a1-6)[Gal(b1-4)GlcNAc(b1-3)Gal(b1-4)GlcNAc(b1-3)Gal(b1-4)GlcNAc(b1-3)Gal(b1-4)GlcNAc(b1-2)Man(a1-3)]Man(b1-4)GlcNAc(b1-4)[Fuc(a1-6)]GlcNAc
# Method in brief: as §1
# [18] = biological target: Gal(b1-4)GlcNAc(b1-3)Gal(b1-4)GlcNAc(b1-3)Gal(b1-4)GlcNAc(b1-3)Gal(b1-4)GlcNAc(b1-3)Gal(b1-4)GlcNAc(b1-2)Man(a1-3)[Gal(b1-4)GlcNAc(b1-3)Gal(b1-4)GlcNAc(b1-3)Gal(b1-4)GlcNAc(b1-3)Gal(b1-4)GlcNAc(b1-3)Gal(b1-4)GlcNAc(b1-2)Man(a1-6)]Man(b1-4)GlcNAc(b1-4)GlcNAc
# Method in brief: as §1
# [19] = biological target: Gal(b1-4)GlcNAc(b1-3)Gal(b1-4)GlcNAc(b1-3)Gal(b1-4)GlcNAc(b1-3)Gal(b1-4)GlcNAc(b1-3)Gal(b1-4)GlcNAc(b1-2)Man(a1-3)[Gal(b1-4)GlcNAc(b1-3)Gal(b1-4)GlcNAc(b1-3)Gal(b1-4)GlcNAc(b1-3)Gal(b1-4)GlcNAc(b1-3)Gal(b1-4)GlcNAc(b1-2)Man(a1-6)]Man(b1-4)GlcNAc(b1-4)[Fuc(a1-6)]GlcNAc
# Method in brief: as §1
# [20] = biological target: Gal(b1-4)GlcNAc(b1-3)Gal(b1-4)GlcNAc(b1-3)Gal(b1-4)GlcNAc(b1-3)Gal(b1-4)GlcNAc(b1-3)Gal(b1-4)GlcNAc(b1-2)[Gal(b1-4)GlcNAc(b1-3)Gal(b1-4)GlcNAc(b1-3)Gal(b1-4)GlcNAc(b1-3)Gal(b1-4)GlcNAc(b1-3)Gal(b1-4)GlcNAc(b1-6)]Man(a1-6)[Gal(b1-4)GlcNAc(b1-3)Gal(b1-4)GlcNAc(b1-3)Gal(b1-4)GlcNAc(b1-3)Gal(b1-4)GlcNAc(b1-3)Gal(b1-4)GlcNAc(b1-2)Man(a1-3)]Man(b1-4)GlcNAc(b1-4)[Fuc(a1-6)]GlcNAc
# Method in brief: as §1
# [21] = biological target: Gal(b1-4)GlcNAc(b1-3)Gal(b1-4)GlcNAc(b1-3)Gal(b1-4)GlcNAc(b1-3)Gal(b1-4)GlcNAc(b1-3)Gal(b1-4)GlcNAc(b1-3)Gal(b1-4)GlcNAc(b1-2)Man(a1-3)[Gal(b1-4)GlcNAc(b1-3)Gal(b1-4)GlcNAc(b1-3)Gal(b1-4)GlcNAc(b1-3)Gal(b1-4)GlcNAc(b1-3)Gal(b1-4)GlcNAc(b1-3)Gal(b1-4)GlcNAc(b1-2)Man(a1-6)]Man(b1-4)GlcNAc(b1-4)GlcNAc
# Method in brief: as §1
# [22] = biological target: Gal(b1-4)GlcNAc(b1-3)Gal(b1-4)GlcNAc(b1-3)GalNAc
# Method in brief: as §1
# [23] = biological target: Gal(b1-4)GlcNAc(b1-3)Gal(b1-4)GlcNAc(b1-3)[Gal(b1-4)GlcNAc(b1-3)Gal(b1-4)GlcNAc(b1-6)]GalNAc
# Method in brief: as §1
# [24] = biological target: Gal(b1-4)GlcNAc(b1-3)Gal(b1-4)GlcNAc(b1-6)[Gal(b1-3)]GalNAc
# Method in brief: as §1
# [25] = biological target: Gal(b1-4)GlcNAc(b1-3)Gal(b1-4)[Fuc(a1-3)]GlcNAc(b1-3)Gal(b1-4)[Fuc(a1-3)]GlcNAc
# Method in brief: as §1
# [26] = biological target: Gal(b1-4)GlcNAc(b1-3)GalNAc
# Method in brief: as §1
# [27] = biological target: Gal(b1-4)GlcNAc(b1-3)[Fuc(a1-3)GlcNAc(b1-6)]Gal(b1-4)Glc
# Method in brief: as §1
# [28] = biological target: Gal(b1-4)GlcNAc(b1-3)[Gal(b1-4)GlcNAc(b1-6)]Gal(b1-4)GlcNAc
# Method in brief: as §1
# [29] = biological target: Gal(b1-4)GlcNAc(b1-3)[GlcNAc(b1-6)]Gal(b1-4)GlcNAc
# Method in brief: as §1
# [30] = biological target: Gal(b1-4)GlcNAc(b1-6)Gal(b1-4)GlcNAc
# Method in brief: as §1
# [31] = biological target: Gal(b1-4)GlcNAc(b1-6)GalNAc
# Method in brief: as §1
# [32] = biological target: Gal(b1-4)GlcNAc(b1-6)[Gal(b1-3)]GalNAc
# Method in brief: as §1
# [33] = biological target: Gal(b1-4)GlcNAc(b1-6)[Gal(b1-4)GlcNAc(b1-3)]GalNAc
# Method in brief: as §1
# Gal(b1-4)GlcNAc6P = biological target: Gal(b1-4)GlcNAc6P
# Method in brief: as §1
# Gal(b1-6)Gal = biological target: Gal(b1-6)Gal
# Method in brief: as §1
# Gal3S(b1-3)GalNAc = biological target: Gal3S(b1-3)GalNAc
# Method in brief: as §1
# Gal3S(b1-3)GlcNAc = biological target: Gal3S(b1-3)GlcNAc
# Method in brief: as §1
# [34] = biological target: Gal3S(b1-3)[Fuc(a1-4)]GlcNAc
# Method in brief: as §1
binder,measurement,setting,value
B1,glycan array binding signal (z-score),[1],-0.402
same,glycan array binding signal (z-score),[2],-0.596
same,glycan array binding signal (z-score),[3],-1.18
same,glycan array binding signal (z-score),[4],-0.923
same,glycan array binding signal (z-score),[5],-0.05
same,glycan array binding signal (z-score),[6],0.139
same,glycan array binding signal (z-score),[7],0.706
same,glycan array binding signal (z-score),[8],0.79
same,glycan array binding signal (z-score),[9],0.199
same,glycan array binding signal (z-score),[10],0.458
same,glycan array binding signal (z-score),[11],-0.219
same,glycan array binding signal (z-score),[12],1.88
same,glycan array binding signal (z-score),[13],0.835
same,glycan array binding signal (z-score),[14],0.426
same,glycan array binding signal (z-score),[15],0.439
same,glycan array binding signal (z-score),[16],0.966
same,glycan array binding signal (z-score),[17],1.6
same,glycan array binding signal (z-score),[18],0.29
same,glycan array binding signal (z-score),[19],0.609
same,glycan array binding signal (z-score),[20],0.608
same,glycan array binding signal (z-score),[21],-0.069
same,glycan array binding signal (z-score),[22],0.796
same,glycan array binding signal (z-score),[23],0.51
same,glycan array binding signal (z-score),[24],0.544
same,glycan array binding signal (z-score),[25],-0.719
same,glycan array binding signal (z-score),[26],-0.553
same,glycan array binding signal (z-score),[27],0.544
same,glycan array binding signal (z-score),[28],-0.18
same,glycan array binding signal (z-score),[29],-0.692
same,glycan array binding signal (z-score),[30],-0.524
same,glycan array binding signal (z-score),[31],1.05
same,glycan array binding signal (z-score),[32],0.078
same,glycan array binding signal (z-score),[33],-0.462
same,glycan array binding signal (z-score),Gal(b1-4)GlcNAc6P,-0.498
same,glycan array binding signal (z-score),Gal(b1-6)Gal,-0.063
same,glycan array binding signal (z-score),Gal3S(b1-3)GalNAc,-0.129
same,glycan array binding signal (z-score),Gal3S(b1-3)GlcNAc,-0.1
same,glycan array binding signal (z-score),[34],-0.341

# Part of the list above, set out differently.
binder	measurement	setting	value
B1	glycan array binding signal (z-score)	[11]	-0.219
same	glycan array binding signal (z-score)	[12]	1.88
